Values quoted from earlier work as cited in US20220227745A1, “Compounds For Modulating FXR” (NANJING RUIJIE PHARMA TECH CO., LTD., priority 2019, published 2022).
For at least one compound, name, drawing or mass did not settle the structure.

Settings: PBC and NASH subjects; cited from earlier work

CC[C@H]1[C@@H](O)[C@@H]2[C@H](CC[C@]3(C)[C@@H]([C@H](C)CCC(=O)O)CC[C@@H]23)[C@@]2(C)CC[C@@H](O)C[C@@H]12 [OCA, 6α-ethyl-chenodeoxycholic acid]
efficacy in clinical studies: showed efficacy
